Among the data in KR20130140557A are binding values, retold here.

Chains of the proteins cited; added tags and fusions are not shown. Residues count along the entry.
UniProt P08887, residues 20-365: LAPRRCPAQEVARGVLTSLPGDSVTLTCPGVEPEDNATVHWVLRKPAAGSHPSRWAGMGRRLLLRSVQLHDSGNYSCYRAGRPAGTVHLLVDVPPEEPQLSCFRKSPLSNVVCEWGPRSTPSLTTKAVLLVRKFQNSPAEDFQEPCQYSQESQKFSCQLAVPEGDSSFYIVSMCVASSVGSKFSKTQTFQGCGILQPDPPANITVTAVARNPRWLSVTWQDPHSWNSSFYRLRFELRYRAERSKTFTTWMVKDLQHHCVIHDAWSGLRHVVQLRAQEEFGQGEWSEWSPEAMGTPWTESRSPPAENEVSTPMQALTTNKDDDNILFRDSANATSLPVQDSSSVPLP

This assay addresses IL-6R-Fc 항원 (IL-6R full domain 단백질) (human) (UniProt P08887). Nature of the assay: ELISA titration on coated IL-6R.

These are yes or no findings as the source states them, for the method shown. Some entries that bind do so weakly or less than the wild type.

B1: 항 IL-6R 단클론 항체 A7 (IgG) (antibody, V domains shown)
VH: QMQLVESGGGLVQPGTSLRLSCAASGFKFEDYAMHWVRQAPGKGLEWVSGVSWNSGTIAYVDSVKGRFTISRDNAKNSLYLQMNSLRAEDTAVYYCARDFTYFYESSGYYAFDLWGQGTMVTVSS
VL: SQLVLTQPPSVSGAPGQRVTISCTGTNSNIGAGYDVHWYQQVPGTTPKLLIYGNTNRPSGVPDRFSGSKSGTSASLAITGLQAEDGGDYYCQSFDSSLTGSVFGTGTKVTVL
On to B1, for which the binding result is “binds”.

B2: 항 IL-6R 단클론 항체 F2 (IgG) (antibody, V domains shown)
VH: QVQLVESGAEVKKPGASVKVSCKASGYTFTNYYMHWVRQAPGQGLEWMGIINPSGGNTGYAQKFQGRVTMTRDMSTSTAYMELSSLRSEDTAVYYCARGLPWGENGLDVWGQGTTVTVSS
VL: SQLVLTQPSSVSGAPGQTVTISCTGSSSNIGAGYDVHWYQQLPGTAPKVLIYGDSDRPSGVPDRFSGSKSATSASLAITGLQAEDEADYYCQSYDSSLSAYVFGTGTKVTVL
Turning to B2, the binding entry is on record as “binds”.
